{"source": "PubChem BioAssay AID1159598 | NIAID | 2016", "aim": "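Canonical TLR pathway genes needed for TNF promoter response to flagellin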", "cells": "human THP-1 B5 reporter cells made macrophage-like with PMA", "reagents": "single siRNA against human genes", "time to read-out": "reporter read 48 to 72 hours after siRNA transfection", "treatment": "flagellin stimulation for 4 hours, dose not given", "measurement": "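TNF promoter firefly luciferase over renilla after 4 h flagellin, plate median/MAD scaled, robust z versus negative controls, mean of replicates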", "direction": "TNF reporter z-score: higher = stronger TNF promoter activity than controls", "hit rule": "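a row is called active when its replicate-mean z lies at or beyond 1.5 in either direction, so raised and lowered signal both count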", "calls": "active = reporter shifted beyond 1.5 z, up or down; inactive = reporter within 1.5 z of controls", "note": "The deposit covers 756 reagents; shown is a part drawn at random. 142 of them (19%) were called active. 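Active includes both higher and lower reporter signal; each gene has six separate siRNAs, and no gene-level summary is deposited.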 A number with no mark means an inactive call. Reagents against one gene are numbered here. The record does not give: the amount of reagent."}
{"Target gene":"TAB1","reagent":1,"TNF reporter z-score":-1.03}
{"Target gene":"TAB1","reagent":2,"TNF reporter z-score":"-2.63 (active)"}
{"Target gene":"TAB1","reagent":3,"TNF reporter z-score":-1.24}
{"Target gene":"TAB1","reagent":4,"TNF reporter z-score":-1.2}
{"Target gene":"TAB1","reagent":5,"TNF reporter z-score":-0.266}
{"Target gene":"TAB1","reagent":6,"TNF reporter z-score":-1.33}
{"Target gene":"TAB2","reagent":1,"TNF reporter z-score":0.958}
{"Target gene":"TAB2","reagent":2,"TNF reporter z-score":-1.2}
{"Target gene":"TAB2","reagent":3,"TNF reporter z-score":"-2.33 (active)"}
{"Target gene":"TAB2","reagent":4,"TNF reporter z-score":"-2.27 (active)"}
{"Target gene":"TAB2","reagent":5,"TNF reporter z-score":"-3.12 (active)"}
{"Target gene":"TAB2","reagent":6,"TNF reporter z-score":"-1.59 (active)"}

Individual results from the entries so far:
Result for TAB2 #6 in “TNF reporter z-score”: -1.59 (active)
TAB1 #5, TNF reporter z-score = -0.266

The list goes on.
{"Target gene":"IKBKE","reagent":1,"TNF reporter z-score":0.465}
{"Target gene":"IKBKE","reagent":2,"TNF reporter z-score":-1.22}
{"Target gene":"IKBKE","reagent":3,"TNF reporter z-score":0.554}
{"Target gene":"IKBKE","reagent":4,"TNF reporter z-score":0.642}
{"Target gene":"IKBKE","reagent":5,"TNF reporter z-score":-1.4}
{"Target gene":"IKBKE","reagent":6,"TNF reporter z-score":0.465}
{"Target gene":"UBE2V1","reagent":1,"TNF reporter z-score":0.00619}
{"Target gene":"UBE2V1","reagent":2,"TNF reporter z-score":-0.259}
{"Target gene":"UBE2V1","reagent":3,"TNF reporter z-score":-0.0882}
{"Target gene":"UBE2V1","reagent":4,"TNF reporter z-score":-0.872}
{"Target gene":"UBE2V1","reagent":5,"TNF reporter z-score":-0.454}
{"Target gene":"UBE2V1","reagent":6,"TNF reporter z-score":0.745}
{"Target gene":"AKT3","reagent":1,"TNF reporter z-score":0.0326}
{"Target gene":"AKT3","reagent":2,"TNF reporter z-score":-0.981}
{"Target gene":"AKT3","reagent":3,"TNF reporter z-score":1.48}
{"Target gene":"AKT3","reagent":4,"TNF reporter z-score":-0.444}
{"Target gene":"AKT3","reagent":5,"TNF reporter z-score":-0.792}
{"Target gene":"AKT3","reagent":6,"TNF reporter z-score":"-1.59 (active)"}
{"Target gene":"PIK3R1","reagent":1,"TNF reporter z-score":0.725}
{"Target gene":"PIK3R1","reagent":2,"TNF reporter z-score":-0.0273}
{"Target gene":"PIK3R1","reagent":3,"TNF reporter z-score":-0.0965}
{"Target gene":"PIK3R1","reagent":4,"TNF reporter z-score":-1.47}
{"Target gene":"PIK3R1","reagent":5,"TNF reporter z-score":"-1.63 (active)"}
{"Target gene":"PIK3R1","reagent":6,"TNF reporter z-score":0.164}
